These results are taken from patent US20250135026A1 (BeiGene Switzerland GmbH, priority 2021, published 2025).

The data set in a line: general procedure: solution-phase peptide synthesis; HOBt/DIEA; HATU/DIEA. As to conditions: conjugation step.

Regarding “(9H-fluoren-9-yl)methyl ((S)-7-benzyl-17-(((1S,9S)-9-ethyl-5-fluoro-9-hydroxy-4-methyl-10,13-dioxo-2,3,9,10,13,15-hexahydro-1H,12H-benzo[de]pyrano[3′,4′:6,7]indolizino[1,2-b]quinolin-1-yl)amino)-16,16-dimethyl-2,5,8,11,17-pentaoxo-14-oxa-3,6,9,12-tetraazaheptadecyl)carbamate”, the conjugation yield is on record as 88.2%.
As for “(2-((2S,3R,4S,5R)-5-((((benzyloxy)carbonyl)amino)methyl)-3,4-dihydroxytetrahydrofuran-2-yl)acetyl)glycylglycylglycylglycine”, the figure is 19%; as for “(2R,3S,4S,5R,6R)-2-(acetoxymethyl)-6-(((11S,19R)-11-benzyl-19-((benzyloxy)carbonyl)-1-(9H-fluoren-9-yl)-3,6,9,12,15-pentaoxo-2,18-dioxa-4,7,10,13,16-pentaazaicosan-20-yl)oxy)tetrahydro-2H-pyran-3,4,5-triyl triacetate (56c)”, 21.1% yield.
